# These are yes or no findings as the source states them, for the method shown. For some assays here: Binding seen in cells or lysates may run through a third protein. Some results given as binding are weak or reduced against the parent protein; the word gives no strength.
# B1: receptor interacting protein kinase 1, Q60855 1-656 (protein)
# chain: MQPDMSLDNIKMASSDLLEKTDLDSGGFGKVSLCYHRSHGFVILKKVYTGPNRAEYNEVLLEEGKMMHRLRHSRVVKLLGIIIEEGNYSLVMEYMEKGNLMHVLKTQIDVPLSLKGRIIVEAIEGMCYLHDKGVIHKDLKPENILVDRDFHIKIADLGVASFKTWSKLTKEKDNKQKEVSSTTKKNNGGTLYYMAPEHLNDINAKPTEKSDVYSFGIVLWAIFAKKEPYENVICTEQFVICIKSGNRPNVEEILEYCPREIISLMERCWQAIPEDRPTFLGIEEEFRPFYLSHFEEYVEEDVASLKKEYPDQSPVLQRMFSLQHDCVPLPPSRSNSEQPGSLHSSQGLQMGPVEESWFSSSPEYPQDENDRSVQAKLQEEASYHAFGIFAEKQTKPQPRQNEAYNREEERKRRVSHDPFAQQRARENIKSAGARGHSDPSTTSRGIAVQQLSWPATQTVWNNGLYNQHGFGTTGTGVWYPPNLSQMYSTYKTPVPETNIPGSTPTMPYFSGPVADDLIKYTIFNSSGIQIGNHNYMDVGLNSQPPNNTCKEESTSRHQAIFDNTTSLTDEHLNPIRENLGRQWKNCARKLGFTESQIDEIDHDYERDGLKEKVYQMLQKWLMREGTKGATVGKLAQALHQCCRIDLLNHLIRASQS
# B2: mixed lineage kinase domain-like pseudokinase (protein, UniProt Q9D2Y4 1-472)
# chain: MDKLGQIIKLGQLIYEQCEKMKYCRKQCQRLGNRVHGLLQPLQRLQAQGKKNLPDDITAALGRFDEVLKEANQQIEKFSKKSHIWKFVSVGNDKILFHEVNEKLRDVWEELLLLLQVYHWNTVSDVSQPASWQQEDRQDAEEDGNENMKVILMQLQISVEEINKTLKQCSLKPTQEIPQDLQIKEIPKEHLGPPWTKLKTSKMSTIYRGEYHRSPVTIKVFNNPQAESVGIVRFTFNDEIKTMKKFDSPNILRIFGICIDQTVKPPEFSIVMEYCELGTLRELLDREKDLTMSVRSLLVLRAARGLYRLHHSETLHRNISSSSFLVAGGYQVKLAGFELSKTQNSISRTAKSTKAERSSSTIYVSPERLKNPFCLYDIKAEIYSFGIVLWEIATGKIPFEGCDSKKIRELVAEDKKQEPVGQDCPELLREIINECRAHEPSQRPSVDGRSLSGRERILERLSAVEESTDKKV
# How the values were obtained:
# [1] = target: receptor interacting protein kinase 3 (mouse (endogenous in MOVAS)), Q9QZL0; test: co-IP; MOVAS cells treated with 30 ng/mL TNFα plus 60 µM zVAD for 6 h; lysed in Pierce IP Lysis Buffer; anti-RIPK3, anti-pan-CaMKII or rabbit IgG on Protein A magnetic beads, incubated with lysate overnight at 4 °C, washed with TBST; immunoblot; conditions: remark: other sources report otherwise
# [2] = target: mixed lineage kinase domain-like pseudokinase (mouse (endogenous in MOVAS)) (UniProt Q9D2Y4); test: Western blot of digitonin lysates for oligomers; MOVAS cells transfected with scrambled or Camk2d siRNAs, treated with 30 ng/mL TNFα plus 60 µM zVAD for 6 h; lysed in 1% digitonin; SDS-PAGE and blot with anti-MLKL or anti-phospho-MLKL
Binder,binding [1],binding [2]
B1,binds,
B2,,binds

# Reference: publication PMC8471540
